# In PubChem BioAssay (NCATS):
# “And” between values parts separate entries of the source, which are not always exact repeats. Equal values may be shown once. This is one part of the list. Further columns of the screen follow, without active or inactive calls. For some of these results: Compounds called inactive in the main read-out are mostly missing here. For some of these results: Words in brackets tell the shape of the fitted curve; partial curves, single points and poor fits give uncertain potencies.
# Assays:
# [1] = Validation of Assay for Modulators of Lamin A Splicing (AID 1459); conditions: Lamin A splicing dual RFP/GFP fluorescence reporter, ratio
# How it was run: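 HeLa S3 lamin A-EGFP/DsRed2 stable clone, 600 cells/well, Opti-MEM 2% FBS; compounds by pin tool; 48 hrs, 37 °C/5% CO2; Acumen 488 nm scan, objects 10-100 um; GFP/RFP intensity ratio.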
# [2] = qHTS Assay for Lipid Storage Modulators (AID 1519); conditions: Drosophila S3 cells, BODIPY lipid droplet/cell ratio, laser cytometry, cells loaded with oleic acid; for AC50: measured here: lipid (BODIPY) channel AC50
# How it was run: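 Cells seeded at 5,000 per well were treated with compounds over a concentration series and loaded with oleic acid (400 uM, as added). Lipid droplet fluorescence (488 nm excitation, 500-530 nm channel) was read by laser-scanning cytometry and normalized to 20 uM Triacsin C.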
# [3] = qHTS Assay for Modulators of Human Peripheral Myelin Protein 22 (PMP22) Expression/Activity (AID 1967); conditions: Cell-based PMP22 reporter, dual-color luciferase ratio
# How it was run: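 Luminescence ratio of Pmp22 promoter-driven green luciferase to EF-alpha-driven red luciferase, in engineered mouse MSC80 Schwann cells, served as read-out. Compounds were incubated 24h; untreated cells defined 0% Activity; curves were classified by r2, magnitude and activity.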
# [4] = qHTS Validation Assay to Find Inhibitors of Chronic Active B-Cell Receptor Signaling (AID 485345); conditions: ABC-DLBCL cells, chronic BCR signaling reporter
# How it was run: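 TMD8 ABC-DLBCL cells stably carrying doxycycline-inducible IkappaBalpha–green luciferase fusion plus unfused red luciferase; compounds 46 uM to 3 nM, 4 h at 37C with doxycycline. Corrected green/red luminescence ratio normalized to 10 uM MG-132 and basal cell wells; curves fitted.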
# [5] = Nrf2 qHTS screen for inhibitors: Validation (AID 493153); conditions: A549 ARE-Fluc reporter, 18-24 h; AC50: CellTiter-Fluor fluorescence read, measured here: cytotoxicity CellTiter-Fluor AC50; viability change: measured here: cytotoxicity max response
# How it was run: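 In this counterscreened reporter format, each well gives two signals: CellTiter-Fluor fluorescence for cytotoxicity and ARE-luciferase luminescence for Nrf2 function. A549 ARE_Fluc cells in 5% FBS OPTI-MEM were exposed to compound titrations for 18-24 h.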
# [6] = A High-Content qHTS Against Drug Library for the Identification of Small Molecules that Inhibit DYT1 Early Onset Primary Dystonia-Associated Cell Pathology (AID 1645839); conditions: HEK293 Flp-In EGFP-delE TorsinA, punctate imaging, 48 h; measured here: cell count cytotoxicity
# How it was run: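 Cells were seeded and left for 24 h, then dosed with compound alongside tetracycline induction of mutant EGFP-TorsinA. They were incubated for 48 h, fixed in 4% paraformaldehyde, permeabilized and imaged for mislocalization (%pathology) and cell count.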
# [7] = qHTS assay for small molecule antagonists of peroxisome proliferator-activated receptor delta signaling (AID 588535); conditions: HEK293T PPARd-UAS-bla, beta-lactamase FRET ratio, 18 h; 460 nm channel;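 further: cells co-treated with a PPAR-delta agonist as stimulator during compound exposure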
# How it was run: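 Beta-lactamase reporter read-out (405 nm excitation, 460/530 nm emission) after CCF4 loading for 2 hrs at RT. HEK293T PPAR-delta-UAS-bla cells, 2% charcoal/dextran FBS, compounds for 18 hrs at 37 C. Hill fit gave IC50 and efficacy.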
# [8] = qHTS assay for small molecule antagonists of peroxisome proliferator-activated receptor gamma signaling (AID 588537); conditions: HEK293 PPARg-UAS-bla, beta-lactamase ratio, antagonist mode; measured here: W460 blue channel
# How it was run: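 Read-out: CCF4 fluorescence (ex 405, em 460/530 nm) after 2 h at RT. Cells were HEK293 carrying a UAS-bla reporter and treated 16 h at 37 C with compound plus rosiglitazone (50 nM final). Normalized to rosiglitazone and DMSO.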
# [9] = qHTS assay for small molecule antagonists of vitamin D receptor signaling (AID 588541); conditions: HEK293T VDR-UAS-bla, beta-lactamase ratio, antagonist mode; measured here: W460 blue channel (cell viability)
# [10] = qHTS assay for small molecule agonists of retinoid X receptor alpha signaling (AID 588544); conditions: HEK293T RXRa-UAS-bla, beta-lactamase reporter, 18 h; 530 nm emission
# [11] = S16 Schwann cell PMP22 intronic element beta-lactamase assay (AID 624044); conditions: S16 rat Schwann cells, PMP22 element beta-lactamase FRET, 24 h
# How it was run: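 Beta-lactamase reporter under a PMP22 intronic regulatory element in stable S16 rat Schwann cells; 24 h compound exposure. 460 nm blue signal normalized between DMSO (0%) and potassium clavulanate, with 535 nm FRET tracking viability; curves classed by r2 and response.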
# [12] = qHTS drug screen for cell cycle checkpoint inhibitors in PARPi-resistant BRCA-mutant ovarian cancer cell lines. (AID 1963452); conditions: PEO1/OlaR viability, CellTiter-Glo luminescence, 96 h
# How it was run: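 PEO1, PEO4 and PEO1/OlaR ovarian cancer cells, 600 per well, exposed 96 h at 37C to a dilution series. Viability read by CellTiter-Glo luminescence, normalized to DMSO and empty wells; activity summarized as Z-AUC.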
# [13] = qHTS for identification of novel therapeutic agents for treatment of microphthalmiaassociated transcription factor (MiT) renal cell carcinoma (RCC) (AID 1963991); conditions: CellTiter-Glo, 48 h; for z-score: stronger effect = lower value
# How it was run: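 Three TFE3-fusion RCC lines (UOK109, UOK124, UOK145), 500 cells/well in complete medium, were treated with MIPE 4.0 compounds for 48 hours at 37 C. Viability was by CellTiter-Glo luminescence, normalized to DMSO (100%) and empty wells (0%); curves fitted over 11 concentrations.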
# [14] = measured here: cell count channel max response
# [15] = measured here: lipid channel max response
# [16] = measured here: green reporter channel AC50, mouse Pmp22 promoter in mouse Schwann cells
# [17] = measured here: red reporter channel AC50, EF-alpha promoter control reporter in MSC80 mouse Schwann cells
# [18] = measured here: CBG/CBR ratio read-out
# [19] = measured here: CBR control luciferase (viability counter)
# [20] = measured here: PEO1 parental viability
# [21] = TFE3-RCC UOK109 viability, measured here: UOK109 Z-AUC
# [22] = TFE3-RCC viability, measured here: UOK124 Z-AUC
# [23] = TFE3-RCC viability, measured here: UOK124 cell viability
# [24] = TFE3-RCC viability, measured here: UOK145 Z-AUC
# [25] = TFE3-RCC viability, measured here: UOK145 cell viability
smiles,measurement,setting,value
C=C1C(=O)O[C@@H]2[C@H]3O[C@]3(C)CCC=C(C)CC[C@@H]12,AC50,[1]; measured here: GFP channel,"17.8 µM [falling, partial curve]"
same,AC50,[1]; measured here: RFP channel,"12.6 µM [falling, partial curve]"
same,max response,[2]; [14],26.3% and 56.6%
same,max response,[2]; [15],-92.3% and 57%
same,AC50,[3]; [16],"42.6 µM [falling, full curve]"
same,AC50,[3]; [17],"37.9 µM [falling, full curve]"
same,AC50,[4]; [18],"3.66 µM [falling, full curve]"
same,AC50,[4]; [19],"6.51 µM [falling, full curve]"
same,viability change,[5],-11.9%
OCCN1CCN(CC/C=C2/c3ccccc3Sc3ccc(C(F)(F)F)cc32)CC1,AC50,[1]; measured here: GFP channel,"15.8 µM [falling, single point]"
same,AC50,[1]; measured here: RFP channel,"14.1 µM [falling, partial curve]"
same,max response,[2]; [14],40%
same,max response,[2]; [15],37.2%
same,AC50,[3]; [16],"23.9 µM [falling, full curve]"
same,AC50,[3]; [17],"19 µM [falling, full curve]"
same,AC50,[4]; [18],"23.1 µM [falling, partial curve]"
same,AC50,[4]; [19],"23.1 µM [falling, single point]"
same,AC50,[6],"2.24 µM [falling, full curve, poor fit]"
Cc1ccccc1/C=C/C1=NCCN1,AC50,[1]; measured here: GFP channel,"25.1 µM [falling, single point]"
same,AC50,[1]; measured here: RFP channel,"35.5 µM [falling, single point]"
same,max response,[2]; [14],39.3%
same,max response,[2]; [15],40.8%
same,AC50,[4]; [18],"14.6 µM [falling, single point]"
O=C(c1ccc(OCCN2CCCCC2)cc1)c1c(-c2ccc(O)cc2)sc2cc(O)ccc12,AC50,[1]; measured here: GFP channel,"20 µM [falling, single point]"
same,AC50,[1]; measured here: RFP channel,"12.6 µM [falling, partial curve]"
same,AC50,[3]; [16],"33.8 µM [falling, full curve]"
same,AC50,[3]; [17],"37.9 µM [falling, full curve]"
same,AC50,[4]; [18],"20.6 µM [falling, partial curve]"
same,AC50,[5],"25.9 µM [falling, partial curve, poor fit]"
same,viability change,[5],-22.8%
same,max response,[7],-106%
same,AC50,[8],"50.1 µM [falling, partial curve, poor fit]"
same,AC50,[9],"1.41 µM [rising, full curve, poor fit]"
same,max response,[10],10.1%
same,AC50,[11]; measured here: 460 nm blue channel,"1.78 µM [falling, full curve, poor fit]"
same,AC50,[11]; measured here: 530 nm viability channel,"12.6 µM [rising, full curve, poor fit]"
same,AC50,[6],"0.891 µM [falling, full curve, poor fit]"
same,AC50,[12]; [20],"19.5 µM [falling, single point]"
same,AC50,[12]; measured here: PEO4 viability,"19.5 µM [falling, partial curve]"
same,z-score,[13]; [21],-0.311
same,z-score,[13]; [22],-0.0878
same,AC50,[13]; [23],"20.9 µM [falling, partial curve]"
same,z-score,[13]; [24],-0.00934
same,AC50,[13]; [25],"14.8 µM [falling, partial curve]"
C#C[C@]1(O)CC[C@H]2C3CCC4=Cc5oncc5CC4(C)C3CCC21C (stereo partly specified),AC50,[1]; measured here: GFP channel,"0.562 µM [rising, full curve]"
same,AC50,[1]; measured here: RFP channel,"0.562 µM [rising, full curve]"
same,max response,[2]; [14],42.9%
same,max response,[2]; [15],46.2%
same,AC50,[3]; [16],"60.1 µM [falling, partial curve]"
same,AC50,[3]; [17],"42.6 µM [falling, partial curve]"
N=c1ccn2c(n1)O[C@H]1[C@@H](O)[C@@H](CO)O[C@H]12,AC50,[1]; measured here: GFP channel,"0.141 µM [falling, full curve]"
same,AC50,[1]; measured here: RFP channel,"0.141 µM [falling, full curve]"
same,max response,[2]; [14],30.5%
same,max response,[2]; [15],31.1%
same,AC50,[3]; [16],"84.9 µM [falling, single point]"
same,AC50,[3]; [17],"15.1 µM [falling, full curve]"
same,z-score,[13]; [21],-0.193
same,z-score,[13]; [22],-0.455
same,AC50,[13]; [23],"1.87 µM [falling, full curve]"
same,z-score,[13]; [24],-1.74
same,AC50,[13]; [25],"1.87 µM [falling, partial curve]"
CSc1ccc2c(c1)N(CCC1CCCCN1C)c1ccccc1S2 (stereo unspecified),AC50,[1]; measured here: GFP channel,"28.2 µM [falling, single point]"
same,AC50,[1]; measured here: RFP channel,"22.4 µM [falling, single point]"
same,max response,[2]; [14],-89.4%
same,AC50,[2],"39.8 µM [falling, partial curve, poor fit]"
same,max response,[2]; [15],-101%
same,AC50,[3]; [16],"26.9 µM [falling, full curve]"
same,AC50,[3]; [17],"26.9 µM [falling, full curve]"
same,AC50,[4]; [18],"11.6 µM [falling, partial curve]"
same,AC50,[4]; [19],"10.3 µM [falling, partial curve]"
same,AC50,[5],"8.2 µM [falling, partial curve, poor fit]"
same,viability change,[5],-27.4%
same,AC50,[6],"17.8 µM [falling, partial curve, poor fit]"
O=Nc1c(-c2c(O)[nH]c3cc(Br)ccc23)[nH]c2ccccc12,AC50,[1]; measured here: GFP channel,"3.55 µM [rising, partial curve]"
same,AC50,[1]; measured here: RFP channel,"22.4 µM [falling, partial curve]"
same,max response,[2]; [14],-53.9%
same,AC50,[2],"22.4 µM [falling, full curve, poor fit]"
same,max response,[2]; [15],-87.7%
same,AC50,[3]; [16],"21.3 µM [falling, full curve]"
same,AC50,[3]; [17],"16.9 µM [falling, full curve]"
same,AC50,[4]; [18],"4.61 µM [falling, partial curve]"
same,AC50,[4]; [19],"6.51 µM [falling, partial curve]"
same,AC50,[5],"20.6 µM [falling, partial curve]"
same,viability change,[5],-67.4%
same,AC50,[12]; [20],"9.77 µM [falling, partial curve]"
same,AC50,[12]; measured here: PEO4 viability,"8.71 µM [falling, partial curve]"
same,z-score,[13]; [21],-0.588
same,z-score,[13]; [22],-0.737
same,AC50,[13]; [23],"18.7 µM [falling, partial curve]"
same,z-score,[13]; [24],-0.88
same,AC50,[13]; [25],"14.8 µM [falling, partial curve]"

# Reformatted as tab-separated lines: entries from further up
smiles	measurement	setting	value
C=C1C(=O)O[C@@H]2[C@H]3O[C@]3(C)CCC=C(C)CC[C@@H]12	AC50	[1]; measured here: RFP channel	12.6 µM [falling, partial curve]
same	max response	[2]; [14]	26.3% and 56.6%
same	max response	[2]; [15]	-92.3% and 57%
same	AC50	[3]; [16]	42.6 µM [falling, full curve]
